The name of at least one read-out is uncertain.
System: yeast tRNA
Experiment: ribonuclease assay with yeast tRNA substrate
Format: biochemical
Conditions: 40 mM sodium phosphate buffer, pH 7.0
Protocol: FIGS. 4 A-D are graphs showing the ribonucleolytic activity of recombinant leukocyte RNases. (A) is a graph showing the optimum pH for RNase activity. Enzymatic activity was determined with 50 pmol rRNase A-1 (open squares) and rRNase A-2 (closed circles) that was incubated with 250 μg/ml yeast tRNA in 40 mM sodium phosphate buffer at the pHs indicated. Measurements of A260 per time were converted to pmol/s as described in reference 28 and Methods. (B) is a graph showing the initial rates for RNase activity. Enzymatic activity was determined as described in (A) with 40 mM sodium phosphate buffer, pH 7.0. (C) is a graph showing the substrate preference for RNase activity. […] A260 was measured after precipitation of undigested RNA at each of the time points indicated. […] RNase activity was measured with […] of bovine pancreatic RNase (left) or […] rRNase A-1 and rRNase A-2 (right) with 250 μg/ml of yeast tRNA as substrate with (+) or without (−) 200 U human placental RNase inhibitor (hPR1) in 40 mM sodium phosphate buffer, pH 7.0. […]
Next, the enzymatic activity of the two recombinant leukocyte RNases was characterized. Optimum pH was determined as 7.0 with 50 pmol rRNase A-1 or A-2, with 200 μg yeast tRNA substrate in 40 mM sodium phosphate buffers ranging from pH 5.5 to 8.0, as shown in FIG. 4A. […]

B1: rRNase A-1: recombinant carboxy-terminal FLAG-tagged Gallus gallus leukocyte RNase A-1, SEQ ID NO: 2, GenBank DQ395275 (protein, listed as Gallus gallus)
chain: VPTYQDFLRTHVDFPKTSFPNIAAYCNVMMVRRGINVHGRCKSLNTFVHTDPRNLNTLCINQPNRALRTTQQQLPVTDCKLIRSHPTCSYTGNQFNHRVRVGCWGGLPVHLDGTFP
modifications: C-terminal FLAG tag
Question: Which kcat/Km does the source give for B1 here?
Answer: 150000 M⁻¹ s⁻¹

B2: rRNase A-2: recombinant carboxy-terminal FLAG-tagged Gallus gallus leukocyte RNase A-2, SEQ ID NO: 4, GenBank DQ395276 (protein, listed as Gallus gallus)
chain: VPTYQDFLYKHMDFPKTSFPSNAAYCNVMMVRRGMTAHGRCKSFNTFVHTDPRNLNTLCINQPDQALRTTRRHFRITDCKLIRSHPTCRYSGNQFNRRVRVGCRGGLPVHLDGTSP
modifications: C-terminal FLAG tag
Question: Which kcat/Km does the source give for B2 here?
Answer: 110000 M⁻¹ s⁻¹

— patent US8748572B2, “RNase a peptides, fragments and uses thereof” (priority 2006, dated 2014)
